Experimental data: the supplement of paper PMC3334620
In all, about 33,000 sequences were measured (“E-score (-0.5 to 0.5)”: median about -0.0059, highest 2% from about 0.26 on). This is one part of the list.

These sequences were tested against T1, Cin5 (UniProt P40917) (assay: PBM E-score (8-mer binding enrichment) (E-score (-0.5 to 0.5)); higher = stronger / more preferred TF binding). Conditions: protein concentration: 100 nM; construct: GST-full length.
T1 sequence: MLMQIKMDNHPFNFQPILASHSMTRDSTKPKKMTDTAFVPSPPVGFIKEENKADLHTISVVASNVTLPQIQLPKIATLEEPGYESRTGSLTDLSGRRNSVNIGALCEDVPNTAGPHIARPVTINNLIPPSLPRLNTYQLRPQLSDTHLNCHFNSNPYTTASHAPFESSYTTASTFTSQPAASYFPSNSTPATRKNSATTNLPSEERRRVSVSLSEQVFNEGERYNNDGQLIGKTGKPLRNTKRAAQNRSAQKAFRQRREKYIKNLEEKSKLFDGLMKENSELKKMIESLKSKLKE
Description: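 Universal 'all 10-mer' protein binding microarrays (Agilent AMADID 015681) probed with GST-tagged S. cerevisiae TFs (full-length or DBD) made by in vitro transcription/translation (PURExpress), about 100-200 nM. Bound TF was detected with fluorescent anti-GST. Each ungapped 8-mer (which stands for itself and its reverse complement) is scored by the PBM enrichment score (E-score), a modified Wilcoxon-Mann-Whitney statistic from -0.5 to +0.5, computed with the Universal PBM Analysis Suite. Scale: above 0.35 generally sequence-specific binding.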

Sequence | PBM E-score
CCTATTCA | -0.0293
TCTACTCA | 0.0957
AACTCCCC | 0.00124
CCGTAATC | 0.329
CACTTGGC | -0.0907
AAGGACCC | -0.275
AAGACCCT | -0.111
GAAAATCC | -0.067
ACGAGATA | -0.0423
GTATGGAC | 0.0654
GGATATCA | -0.0284
GCGCACGA | 0.0484
TCTCCACA | -0.037
CACTGCGG | 5e-05
CAGAGGCC | -0.31
AACAATGC | 0.224
AGTCCAAA | -0.0396
ACTTCAAT | 0.148
ATTGTTGC | 0.0803
CTGGCGTC | -0.104
CACCCGAC | -0.0307
ATTCCCTA | 0.153
AAGCGCCA | -0.158
CCTTTTCA | 0.022
AGGCCACT | -0.0477

Sequence | PBM E-score
TCGCAGAA | -0.218
AATAGTCT | 0.102
CCCCAGCA | 0.0531
GCAGTTGA | 0.129
AACTGCCC | -0.108
ATGTCGGC | -0.0782
TACCAAGA | 0.0462
ACAGTTTC | 0.21
CCAAAACG | 0.0689
TACACCAA | 0.0903
AAGAGCCC | -0.195
CCACAGGA | 0.00553
TATTATAA | 0.226
ACGTACAC | 0.105
AGATGTCA | 0.104
ACGCGCGT | 0.138
AAAGGGCT | -0.259
AGCCTCGG | -0.167
TACTGAAA | 0.267
ACGGAGTA | 0.0754
AGACATTG | -0.0324
AACCAGTT | 0.174
AGCGCCGG | -0.177
GGCTAAGA | -0.0331
CGTACACC | -0.071

Sequence | PBM E-score
GCCCCGAC | -0.0599
GGTTATGA | 0.0558
AAGCTCCC | -0.214
CAGGCTCA | -0.0177
GGTGATCA | -0.0401
TGTGGGAA | -0.058
CCGACCTC | -0.235
AATCATTG | 0.207
CTCAGACA | 0.0313
AGCCTGAT | -0.0901
GGCGTCGA | 0.0474
ATCGTCCA | -0.142
ATACGCAC | 0.0197
ACTAATGC | 0.191
AAGAACTG | -0.0845
ACGCCGTC | 0.0294
CCCCACGG | -0.153
GGATTTAC | 0.0769
CTCAGATC | 0.0619
GAAGGTAA | 0.0631
GAATCTCA | -0.0979
CTCTTCTA | -0.0775
ACGTGCGG | 0.037
ATATCCTA | 0.0388
GAGAAGGA | -0.0759

6 entries drawn at random from the list so far, as already listed:
Sequence | PBM E-score
ACGCCGTC | 0.0294
ACTAATGC | 0.191
ACGTGCGG | 0.037
GGTGATCA | -0.0401
CTCAGACA | 0.0313
CCGACCTC | -0.235

Remaining list, next part

Sequence | PBM E-score
CACTATAG | 0.0419
CCACGACC | -0.122
GCTACATA | 0.0756
AGCTACTC | -0.0316
AGCTCGGC | -0.036
AAAATGGG | -0.0874
CACATTAC | 0.255
AGCCACTA | -0.00233
CGGTCATC | 0.0195
GTAAAGCA | 0.124
ATAAATAC | 0.279
CCGGGCCA | -0.245
GACCCGTA | -0.178
CTACTAAA | -0.0525
CTTGGTTA | 0.133
CTGAGTGC | -0.0995
GCGGGCGA | 0.0565
AAGTTTTG | 0.149
CGAAACGA | -0.00691
CAGTCGGA | -0.146
ATAGATGC | 0.0293
AGATCTAC | 0.121
TATGATGA | 0.176
GTCAATAA | 0.0365
ACCTTATG | -0.00391

Sequence | PBM E-score
CGCTACAA | 0.0999
CGGAGATC | -0.0902
CAACTCTA | -0.0843
AATGCTAG | -0.0233
AGTTCGCC | -0.023
ATGTGGCA | -0.0905
CGGACGGC | -0.115
AAGCGATA | 0.0391
AAGTAATG | 0.184
CCTTTACC | -0.224
CGATTGCG | 0.0141
CTGCGCCC | -0.208
ACTTGATA | 0.209
GTTATAAA | 0.198
CTCACAGA | -0.101
ATGTAGTG | 0.132
AGTTGCAG | 0.0134
AAGACTTG | -0.0583
GTTAGTAA | 0.111
AGTGGTGA | -0.0582
AGCCATAG | -0.141
CCGGACGC | 0.00937
ACAAAACA | 0.156
CTTCCCCC | -0.394
ATGCATAC | 0.223

Sequence | PBM E-score
ATGAAAGA | 0.122
CATGCCAA | 0.0522
TTACTCAA | 0.148
AACTCCCG | 0.00321
ACTCGGCC | -0.0935
GAGCCATC | -0.106
CCCTCCCG | -0.257
CCACGAAA | -0.0837
CGACTCCG | -0.18
TGGGCAAA | -0.0173
ACGCGTTC | -0.012
AAATAATC | 0.17
CTAAAATA | 0.107
AAAGCGCA | -0.0252
CAGGGAGC | -0.289
GAGGAGAA | -0.316
CATAACTA | 0.109
CTTAGCCA | 0.0934
CGGGTACG | -0.281
CTCAGTGC | -0.0828
CGCACAAG | -0.0688
CAGAGCTA | -0.331
AAAAGATT | -0.0107
GGTGCCTA | -0.127
CAATACAA | 0.308

A portion from further up, as a working copy:
Sequence | PBM E-score
AATAGTCT | 0.102
CCCCAGCA | 0.0531

Further entries.

Sequence | PBM E-score
CACATTTC | 0.152
AGTAACAC | 0.163
CTCGGGAA | 0.0007
CTAGCGCA | -0.0573
CCAGACTA | -0.0111
TACATGTA | 0.229
CCCCCCAC | -0.478
CCAATTAG | 0.176
ATGGGACC | 0.0185
CCCTAAAA | -0.15
GTCGGCCA | -0.189
ACCAAGCG | -0.0401
CCGATCAA | -0.0326
GGATGAAC | 0.0448
CCTAGGAG | -0.232
TAATAGTA | 0.228
ATCGGAAG | 0.0974
GGGCGGAA | 0.175
AACGGACT | -0.241
ACGGCACA | -0.144
ACATCCAA | 0.0835
GTCCTCCA | -0.157
GTTTATTA | 0.215
GGTAGCAA | -0.117
AGTTAGAC | 0.0146

An excerpt of these results, as a markdown table.

| Sequence | PBM E-score |
| --- | --- |
| CCAATTAG | 0.176 |
| ATGGGACC | 0.0185 |
| CCCTAAAA | -0.15 |

Further results

Sequence | PBM E-score
ATAGATCA | 0.173
CTGGCAAC | -0.158
AGTCAGAA | 0.0132
TATCTAGA | -0.106
ATTGTTGA | 0.149
AAGTAGTG | 0.138
ATAACACA | 0.229
ATGCAAGC | 0.0531
GAAGCAGC | -0.162
AGGTAGCC | -0.088
CATCGGCC | -0.17
CATATTGC | 0.0152
ACAGCCTG | -0.011
CGGCACAC | -0.0518
CATGATGG | -0.00846
ATTTATAA | 0.299
ACGCTACT | -0.0514
CAGGCAGC | -0.109
AGATCATC | 0.0713
ATCTAATC | 0.306
CTTGAGTA | 0.0776
ACAGAAGG | -0.212
CTAGTAAG | 0.116
AAGGAGAA | 0.0927
ATACTCTG | 0.137

Sequence | PBM E-score
ATAGTTGA | 0.121
CCGGATGC | -0.0297
ACCCAACA | 0.00467
CTTGATTC | 0.122
ACGAAGAG | -0.0165
AGAGCTAA | -0.159
CGTGCAAA | 0.00551
GGCAAACA | 0.123
CCAGATCC | -0.169
ACTAATTG | 0.175
CCCATTAG | -0.353
ATATGAGA | 0.106
ACGTCGAG | -0.0874
GAACGTGC | -0.213
GAGAGTGC | -0.0979
CGACGTAC | -0.00505
CGTAGACG | -0.217
CGCCCTAC | -0.331
AACAACTC | -0.0352
